PMC7501263
These are yes or no findings as the source states them, for the method shown. Binding seen in cells or lysates may run through a third protein. Binding calls can cover weak binding; strength is not graded here. Where a sequence is shown, tags or fusion partners need not be part of it.

Assays:
[1] = molecular target: T1, Recombinant murine C-terminally 2xStrepII tagged full length fibulin-1 (murine) (UniProt Q08879); assay: pull-down; positive control experiment of the in vitro binding assay: fibulin-1 and -2 with elastin (Supplementary Fig. S2); details not told
T1 sequence: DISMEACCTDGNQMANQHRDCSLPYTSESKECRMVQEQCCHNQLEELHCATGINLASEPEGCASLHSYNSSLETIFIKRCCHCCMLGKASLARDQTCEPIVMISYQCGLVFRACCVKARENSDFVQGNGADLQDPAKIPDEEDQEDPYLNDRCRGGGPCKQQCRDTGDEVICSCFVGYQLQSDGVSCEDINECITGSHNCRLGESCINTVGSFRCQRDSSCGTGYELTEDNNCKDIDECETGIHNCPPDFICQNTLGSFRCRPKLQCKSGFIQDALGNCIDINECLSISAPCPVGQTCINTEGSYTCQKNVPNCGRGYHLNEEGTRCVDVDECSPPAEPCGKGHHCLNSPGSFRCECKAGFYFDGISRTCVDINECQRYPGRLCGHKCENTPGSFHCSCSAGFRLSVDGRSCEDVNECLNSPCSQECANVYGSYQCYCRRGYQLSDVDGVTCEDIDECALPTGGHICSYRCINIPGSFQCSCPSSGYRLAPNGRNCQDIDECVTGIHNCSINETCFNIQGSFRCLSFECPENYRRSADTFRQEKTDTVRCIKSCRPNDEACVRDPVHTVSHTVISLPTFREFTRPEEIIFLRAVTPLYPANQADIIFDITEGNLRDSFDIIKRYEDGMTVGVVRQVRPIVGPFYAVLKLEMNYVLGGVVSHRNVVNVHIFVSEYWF

[2] = molecular target: T2, Recombinant murine C-terminally 2xStrepII tagged full length fibulin-2 (murine) (UniProt P37889); assay: as above
T2 sequence: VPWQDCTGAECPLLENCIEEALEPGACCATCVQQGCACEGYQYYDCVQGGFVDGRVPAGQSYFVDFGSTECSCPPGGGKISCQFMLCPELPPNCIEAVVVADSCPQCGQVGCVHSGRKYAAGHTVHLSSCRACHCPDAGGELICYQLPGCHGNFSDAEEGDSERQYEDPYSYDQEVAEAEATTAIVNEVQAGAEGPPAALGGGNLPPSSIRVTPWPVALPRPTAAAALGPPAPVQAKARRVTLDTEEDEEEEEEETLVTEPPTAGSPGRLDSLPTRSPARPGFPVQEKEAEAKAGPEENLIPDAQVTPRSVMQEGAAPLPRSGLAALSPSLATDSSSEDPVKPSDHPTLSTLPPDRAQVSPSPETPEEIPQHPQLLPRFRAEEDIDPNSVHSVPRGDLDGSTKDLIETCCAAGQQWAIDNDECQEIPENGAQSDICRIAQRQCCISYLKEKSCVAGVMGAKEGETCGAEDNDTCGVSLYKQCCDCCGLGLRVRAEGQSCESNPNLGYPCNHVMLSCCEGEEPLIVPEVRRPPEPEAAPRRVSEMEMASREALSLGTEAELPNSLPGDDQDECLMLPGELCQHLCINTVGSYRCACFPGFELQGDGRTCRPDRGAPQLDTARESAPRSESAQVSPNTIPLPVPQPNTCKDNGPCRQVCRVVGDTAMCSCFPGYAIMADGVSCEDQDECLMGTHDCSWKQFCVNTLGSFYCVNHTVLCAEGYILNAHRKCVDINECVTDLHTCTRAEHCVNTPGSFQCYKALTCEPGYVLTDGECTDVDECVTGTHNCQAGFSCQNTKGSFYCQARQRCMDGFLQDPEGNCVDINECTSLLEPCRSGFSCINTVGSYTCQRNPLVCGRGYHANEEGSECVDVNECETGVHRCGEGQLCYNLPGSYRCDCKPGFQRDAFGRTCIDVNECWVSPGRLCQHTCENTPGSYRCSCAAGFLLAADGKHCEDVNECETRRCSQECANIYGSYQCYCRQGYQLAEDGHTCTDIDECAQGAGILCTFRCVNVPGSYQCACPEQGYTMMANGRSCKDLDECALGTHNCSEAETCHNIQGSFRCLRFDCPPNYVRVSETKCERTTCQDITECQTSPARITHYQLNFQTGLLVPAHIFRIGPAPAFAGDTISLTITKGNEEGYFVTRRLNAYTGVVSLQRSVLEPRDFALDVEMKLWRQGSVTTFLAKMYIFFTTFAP

binding [1]: binds
binding [2]: binds
Substance: elastin
